These are yes or no findings as the source states them, for the method shown. Binding seen in cells or lysates may run through a third protein. Some results given as binding are weak or reduced against the parent protein; the word gives no strength.
Molecular target: β-catenin (UniProt P35222)
Assay: co-IP; co-immunoprecipitation of DDX5 and β-catenin, testing the effect of MIG; n = 3; cells, bait and antibody not stated (performed as in ref. 42)

Chains of the proteins cited; added tags and fusions are not shown.
UniProt P35222: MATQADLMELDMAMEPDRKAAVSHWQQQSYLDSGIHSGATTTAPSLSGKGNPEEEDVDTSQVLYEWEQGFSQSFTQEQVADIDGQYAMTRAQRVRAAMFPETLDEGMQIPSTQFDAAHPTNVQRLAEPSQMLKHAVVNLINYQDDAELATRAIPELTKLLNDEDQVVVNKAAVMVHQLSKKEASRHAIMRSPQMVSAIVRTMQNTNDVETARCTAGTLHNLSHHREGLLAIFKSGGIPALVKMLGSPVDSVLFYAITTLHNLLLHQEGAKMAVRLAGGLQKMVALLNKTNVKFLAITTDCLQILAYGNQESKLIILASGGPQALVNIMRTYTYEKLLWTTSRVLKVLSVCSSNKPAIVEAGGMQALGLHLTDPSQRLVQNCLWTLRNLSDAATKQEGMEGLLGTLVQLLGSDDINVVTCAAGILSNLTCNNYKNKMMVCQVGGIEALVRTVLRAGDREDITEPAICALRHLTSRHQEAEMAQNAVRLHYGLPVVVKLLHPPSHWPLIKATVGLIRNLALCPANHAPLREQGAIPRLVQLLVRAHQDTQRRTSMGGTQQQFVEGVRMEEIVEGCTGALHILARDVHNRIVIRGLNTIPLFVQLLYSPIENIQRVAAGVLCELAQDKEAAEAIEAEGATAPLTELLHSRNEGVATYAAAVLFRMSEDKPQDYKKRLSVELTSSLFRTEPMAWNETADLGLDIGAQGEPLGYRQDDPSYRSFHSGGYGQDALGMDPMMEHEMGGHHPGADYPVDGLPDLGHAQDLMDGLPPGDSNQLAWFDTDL
UniProt P17844: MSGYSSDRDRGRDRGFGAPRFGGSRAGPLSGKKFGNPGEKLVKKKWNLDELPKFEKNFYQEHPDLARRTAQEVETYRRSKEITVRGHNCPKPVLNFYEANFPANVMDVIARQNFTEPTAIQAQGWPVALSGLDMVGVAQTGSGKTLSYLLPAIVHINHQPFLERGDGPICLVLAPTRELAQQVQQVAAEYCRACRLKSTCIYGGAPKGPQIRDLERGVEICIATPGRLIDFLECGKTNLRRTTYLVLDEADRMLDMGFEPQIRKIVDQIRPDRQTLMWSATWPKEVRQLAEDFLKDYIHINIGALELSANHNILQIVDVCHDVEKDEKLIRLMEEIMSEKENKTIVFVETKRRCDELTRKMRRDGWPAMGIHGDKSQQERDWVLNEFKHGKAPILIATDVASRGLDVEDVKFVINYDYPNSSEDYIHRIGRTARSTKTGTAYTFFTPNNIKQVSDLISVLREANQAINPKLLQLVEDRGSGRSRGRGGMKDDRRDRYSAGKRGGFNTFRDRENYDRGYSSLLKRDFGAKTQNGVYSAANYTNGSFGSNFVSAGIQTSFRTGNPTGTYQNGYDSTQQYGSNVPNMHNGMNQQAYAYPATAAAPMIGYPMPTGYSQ

binding: binds
Substance: DDX5 (DEAD-box helicase 5) (from UniProt P17844 1-614)

From paper PMC13000115
